Reference: US20210054078A1
Numbering of substitutions follows the chain as printed. Results are given in words; binding and its absence hold for the method and conditions named. Some entries that bind do so weakly or less than the wild type.

By UniProt entry, the sequences of proteins in these tests, tags left out. Where a name states a change or a piece, a line headed by the entry shows the natural chain unless it says otherwise. Residues count along the entry.
UniProt Q9EP73, residues 19-290: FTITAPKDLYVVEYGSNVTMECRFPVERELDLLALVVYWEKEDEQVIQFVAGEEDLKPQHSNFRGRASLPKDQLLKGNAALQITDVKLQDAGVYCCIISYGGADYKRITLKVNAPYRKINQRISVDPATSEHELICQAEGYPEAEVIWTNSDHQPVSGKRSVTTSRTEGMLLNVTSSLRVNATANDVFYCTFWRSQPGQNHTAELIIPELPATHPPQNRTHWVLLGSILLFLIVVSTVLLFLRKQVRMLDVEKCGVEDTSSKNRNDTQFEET
UniProt Q9NZQ7: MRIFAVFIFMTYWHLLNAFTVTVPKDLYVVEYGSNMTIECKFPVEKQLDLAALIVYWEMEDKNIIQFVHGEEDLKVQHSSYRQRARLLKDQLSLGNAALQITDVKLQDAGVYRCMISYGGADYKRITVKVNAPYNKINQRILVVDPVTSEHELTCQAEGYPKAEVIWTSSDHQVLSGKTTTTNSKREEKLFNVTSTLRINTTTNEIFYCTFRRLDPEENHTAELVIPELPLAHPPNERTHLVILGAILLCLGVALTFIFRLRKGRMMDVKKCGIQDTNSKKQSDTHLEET
human PD-L1 on hPD-L1/CHO-K1 overexpressing cells: residues 19-290 of Q9NZQ7

B1: ME4 anti-PD-L1 antibody (IgG form) (antibody, V domains shown)
VH: QVQLVESGAEVKKPGSSVKVSCKASGGTFNNYAVSWVRQAPGQGLEWMGRIIPILGIANYAQTFQGRVTITADKSTTTAYMELSSLRSEDTAVYYCARSYSGYAEGAFDIWGQGTMVTVSS
VL: QFVLTQPPSVSGAPGQRVTISCTGSSSNIGAGYDVHWYQQLPGTAPKVLIYGNSDRPSGVPDRFSGSKSGTSASLAITGLQGEDKATYYCQSYDSRLSGPVFGTGTKVTVLG
B2: ME4.A2 anti-PD-L1 antibody (IgG form) (antibody, V domains shown)
VH: B1 VH with Y100S, S101R, E105H
VL: B1 VL
B3: ME4.A11 anti-PD-L1 antibody (IgG form) (antibody, V domains shown)
VH: B1 VH with Y100R, S101G, E105H
VL: B1 VL
B4: ME4.A12 anti-PD-L1 antibody (IgG form) (antibody, V domains shown)
VH: B1 VH with Y100H, S101W, E105H
VL: B1 VL
B5: ME4.B10 anti-PD-L1 antibody (IgG form) (antibody, V domains shown)
VH: B1 VH with Y100A, S101R, E105H
VL: B1 VL
B6: ME4.B12 anti-PD-L1 antibody (IgG form) (antibody, V domains shown)
VH: B1 VH with Y100S, S101F, A104S, E105V
VL: B1 VL
B7: 1G1 anti-PD-L1 antibody (IgG form) (antibody, V domains shown)
VH: QVQLVESGGGLVQPGRSLRLSCAASGFTFDDYAMHWVRQAPGKGLEWVSGISWNSGSIGYADSVKGRFTISRDNAKNSLYLQMNSLRAEDTAVYYCAKPRDISSWLGMDVWGQGTTVTVSS
VL: DIQMTQSPSSVSASVGDRVTITCRASQDISSWLAWYQQKPGKAPKLLIYAASSLQSGVPSRFSGSGSGTDFTLTISSLQPEDSATYYCQQTNNFPYTFGQGTKLEIKR

What follows are binders tested against mouse PD-L1 on mPD-L1/CHO-K1 overexpressing cells (mouse) (UniProt Q9EP73) (assay: flow cytometry, purified IgG on mPD-L1/CHO-K1 cells, PE anti-human IgG-Fc).

binding, binds:
B1

These binders were tested against mouse PD-L1 on mPD-L1/CHO-K1 overexpressing cells (mouse) (UniProt Q9EP73) (assay: flow cytometry on mPD-L1/CHO-K1 cells).

binding, binds:
B2
B3
B4
B5
B6

The binders below were run against Human PD-L1-HisTag (#10084-H08H, Sino Biological Inc.) (human) (UniProt Q9NZQ7) (assay: ELISA on coated His-tag human PD-L1, OD450-630).

binding, binds:
B1
B7

These binders were tested against human PD-L1 on hPD-L1/CHO-K1 overexpressing cells (human) (UniProt Q9NZQ7) (assay: flow cytometry, purified IgG on hPD-L1/CHO-K1 cells, PE anti-human IgG-Fc).

binding, binds:
B1
B7

These binders were tested against human PD-L1 on hPD-L1/CHO-K1 overexpressing cells (human) (UniProt Q9NZQ7) (assay: flow cytometry on hPD-L1/CHO-K1 cells).

binding, binds:
B2
B3
B4
B5
B6
